# Laboratory results: PubChem BioAssay AID192 (DTP/NCI, 2004)
# The list does not hold the whole screen: it is rich in T/C values a quarter to a half above the control, in often repeated tests (any T/C) and in doses without a T/C. Other doses and runs of a compound stand elsewhere. T/C is the treated group as % of the vehicle group. Some doses have a count of surviving animals in place of a T/C: the source holds a T/C of zero for them, seemingly a mark for toxic or unscored doses. Some doses without a T/C left all or most animals alive at the check, yet need not have been tolerated: survival well below the control is almost never listed, so the zero probably covers shortened survival too. Counts of survivors are from the toxicity check (mostly the fifth day) where no day follows; animals may have died later. Schedules are NCI's codes, read here as Q, the interval in days (D) or hours (H), X, the number of doses. Some entries were tested several times; their values stand side by side, smallest first. For survival time, this PubChem deposit counts one and a half times the control or more as active, and values a quarter to a half above the control carry no call in these data; other NCI protocols may use other cut-offs. Some T/C values are followed by the survivors on the day toxicity was checked, most often the fifth; without a count, all were alive then.
# Test system: BDF1 mice, B16 melanoma ip, median survival T/C
# Test: NCI In Vivo Anticancer Drug Screen. Data for tumor model B16 Melanoma (intraperitoneal) in B6D2F1 (BDF1) mice
# Conditions: T/C endpoint: median survival time, higher T/C = longer survival
# Method in brief: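 Each result divides a survival or tumor-size measurement in the compound-treated group by the same measurement in the vehicle group.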
# [1] = dose: 10.0 mg/kg/injection, schedule: Q01DX009 (ip), vehicle: Klucel (hydroxypropylcellulose) (HPC)
# [2] = dose: 20.0 mg/kg/injection, schedule: Q01DX009 (ip), vehicle: Klucel (hydroxypropylcellulose) (HPC)
# [3] = dose: 40.0 mg/kg/injection, schedule: Q01DX009 (ip), vehicle: Klucel (hydroxypropylcellulose) (HPC)
# [4] = dose: 640.0 mg/kg/injection, schedule: Q04DX003 (ip), vehicle: Klucel (hydroxypropylcellulose) (HPC)
# [5] = dose: 200.0 mg/kg/injection, schedule: Q01DX009 (ip), vehicle: Klucel (hydroxypropylcellulose) (HPC)
# [6] = dose: 200.0 mg/kg/injection, schedule: Q04DX003 (ip), vehicle: Klucel (hydroxypropylcellulose) (HPC)
# [7] = dose: 400.0 mg/kg/injection, schedule: Q01DX009 (ip), vehicle: Klucel (hydroxypropylcellulose) (HPC)
# [8] = dose: 100.0 mg/kg/injection, schedule: Q01DX009 (ip), vehicle: Klucel (hydroxypropylcellulose) (HPC)
# [9] = dose: 100.0 mg/kg/injection, schedule: Q01DX009 (ip), vehicle: saline
structure (smiles),measurement,setting,value
[Cl][Pt+2][Cl].[NH-]C1CCCC1.[NH-]C1CCCC1,T/C,[1],130 % of control
same,survivor count,[1],7 of 10
same,T/C,[2],"104, 112, 130 % of control"
same,survivor count,[2],10 of 10
same,T/C,[3],102 and 130 % of control
same,survivor count,[3],3 of 10 and 10 of 10
same,T/C,"dose: 40.0 mg/kg/injection, schedule: Q01DX009 (ip), vehicle: saline",147 % of control
same,survivor count,"dose: 40.0 mg/kg/injection, schedule: Q04DX003 (ip), vehicle: Klucel (hydroxypropylcellulose) (HPC)",9 of 10
same,survivor count,"dose: 80.0 mg/kg/injection, schedule: Q01DX009 (ip), vehicle: Klucel (hydroxypropylcellulose) (HPC)",1 of 10 and 10 of 10
same,T/C,"dose: 80.0 mg/kg/injection, schedule: Q01DX009 (ip), vehicle: saline",140 % of control
same,survivor count,"dose: 80.0 mg/kg/injection, schedule: Q04DX003 (ip), vehicle: Klucel (hydroxypropylcellulose) (HPC)",10 of 10
same,T/C,"dose: 80.0 mg/kg/injection, schedule: Q04DX003 (ip), vehicle: saline",130 % of control
same,survivor count,"dose: 100.0 mg/kg/injection, schedule: Q01DX009 (ip), vehicle: olive oil, sesame oil, peanut oil",6 of 6
same,T/C,"dose: 160.0 mg/kg/injection, schedule: Q01DX001 (ip), vehicle: saline",131 % of control
same,survivor count,"dose: 160.0 mg/kg/injection, schedule: Q01DX009 (ip), vehicle: Klucel (hydroxypropylcellulose) (HPC)",2 of 10 and 9 of 10
same,survivor count,"dose: 160.0 mg/kg/injection, schedule: Q01DX009 (ip), vehicle: saline with Tween-80",10 of 10
same,survivor count,"dose: 160.0 mg/kg/injection, schedule: Q04DX003 (ip), vehicle: Klucel (hydroxypropylcellulose) (HPC)",7 of 10
same,T/C,"dose: 160.0 mg/kg/injection, schedule: Q04DX003 (ip), vehicle: saline",126 % of control
same,T/C,"dose: 320.0 mg/kg/injection, schedule: Q01DX001 (ip), vehicle: saline",136 % of control
same,survivor count,"dose: 320.0 mg/kg/injection, schedule: Q01DX009 (ip), vehicle: Klucel (hydroxypropylcellulose) (HPC)",3 of 10 and 9 of 10
same,survivor count,"dose: 320.0 mg/kg/injection, schedule: Q04DX003 (ip), vehicle: Klucel (hydroxypropylcellulose) (HPC)",10 of 10
same,T/C,"dose: 320.0 mg/kg/injection, schedule: Q04DX003 (ip), vehicle: saline",125 % of control
same,T/C,"dose: 640.0 mg/kg/injection, schedule: Q01DX001 (ip), vehicle: Klucel (hydroxypropylcellulose) (HPC)",130 % of control [9 of 10 alive]
same,T/C,"dose: 640.0 mg/kg/injection, schedule: Q01DX001 (ip), vehicle: saline",135 % of control
same,T/C,[4],126 % of control
same,survivor count,[4],9 of 10
same,T/C,"dose: 1280.0 mg/kg/injection, schedule: Q01DX001 (ip), vehicle: Klucel (hydroxypropylcellulose) (HPC)",140 % of control
same,T/C,"dose: 1280.0 mg/kg/injection, schedule: Q01DX001 (ip), vehicle: saline",131 % of control
CC[C@H]1CN2CCc3cc(OC)c(OC)cc3[C@@H]2C[C@@H]1C[C@H]1NCCc2c1[nH]c1ccc(O)cc21,T/C,"dose: 2.0 mg/kg/injection, schedule: Q01DX009 (ip), vehicle: Klucel (hydroxypropylcellulose) (HPC)",133 % of control
same,survivor count,"dose: 4.0 mg/kg/injection, schedule: Q01DX009 (ip), vehicle: Klucel (hydroxypropylcellulose) (HPC)",10 of 10
CC(=O)OCC1OC(S[As](C)C)C(OC(C)=O)C(OC(C)=O)C1OC(C)=O (stereo unspecified),survivor count,[5],10 of 10
COC(=O)C(N)Cc1ccc(O)c(O)c1 (stereo unspecified),T/C,"dose: 400.0 mg/kg/injection, schedule: Q08HX018 (ip), vehicle: water",131 % of control
same,survivor count,"dose: 600.0 mg/kg/injection, schedule: Q01DX012 (ip), vehicle: saline",5 of 10
same,T/C,"dose: 600.0 mg/kg/injection, schedule: Q01DX014 (ip), vehicle: saline",146 % of control [8 of 10 alive]
same,survivor count,"dose: 800.0 mg/kg/injection, schedule: Q08HX018 (ip), vehicle: water",4 of 10
same,survivor count,"dose: 800.0 mg/kg/injection, schedule: Q08HX030 (ip), vehicle: saline",2 of 10
same,survivor count,"dose: 1600.0 mg/kg/injection, schedule: Q08HX018 (ip), vehicle: water",0 of 10
COC(=O)C1C2CC3c4[nH]c5cc(OC)ccc5c4CCN3CC2CC(OC2CCCCO2)C1OC (stereo unspecified),T/C,"dose: 6.25 mg/kg/injection, schedule: Q04DX003 (ip), vehicle: Klucel (hydroxypropylcellulose) (HPC)",125 % of control
same,survivor count,[6],8 of 10
same,survivor count,"dose: 400.0 mg/kg/injection, schedule: Q04DX003 (ip), vehicle: Klucel (hydroxypropylcellulose) (HPC)",2 of 10
[N-]=[N+]=C1Cc2ccccc2C1=O,survivor count,[7],0 of 10
CCC1OC(=O)CC(O)C(C)C(OC2OC(C)CC(N(C)C)C2O)C(CC=O)CC(C)C(=O)/C=C/C2(C)OC2C1C (stereo unspecified),survivor count,"dose: 12.5 mg/kg/injection, schedule: Q01DX009 (ip), vehicle: Klucel (hydroxypropylcellulose) (HPC)",7 of 7
same,survivor count,"dose: 25.0 mg/kg/injection, schedule: Q01DX009 (ip), vehicle: Klucel (hydroxypropylcellulose) (HPC)",6 of 7
same,survivor count,"dose: 50.0 mg/kg/injection, schedule: Q01DX009 (ip), vehicle: Klucel (hydroxypropylcellulose) (HPC)",10 of 10
same,survivor count,[5],8 of 10
C[P+](C)(Cc1ccc([N+](=O)[O-])cc1)c1ccccc1,survivor count,[8],0 of 10
Cc1ccc(NC(=O)c2ccccc2Cl)cc1,survivor count,"dose: 400.0 mg/kg/injection, schedule: Q01DX009 (ip), vehicle: saline with Tween-80",6 of 10
C[n+]1cccc(NC(=O)c2ccc(NC(=O)c3ccc(C(=O)Nc4ccc(NC(=N)N)cc4)cc3)cc2)c1,T/C,"dose: 3.0 mg/kg/injection, schedule: Q01DX009 (ip), vehicle: saline",133 % of control
same,survivor count,"dose: 5.0 mg/kg/injection, schedule: Q01DX009 (ip), vehicle: saline",10 of 10
same,survivor count,"dose: 8.0 mg/kg/injection, schedule: Q01DX009 (ip), vehicle: saline",10 of 10
same,survivor count,"dose: 12.0 mg/kg/injection, schedule: Q01DX009 (ip), vehicle: saline",8 of 10
CC1(C)N=C(N)N=C(N)N1c1cccc(CNC(=O)Nc2cccc(S(=O)(=O)F)c2)c1,survivor count,[9],4 of 6
same,survivor count,"dose: 200.0 mg/kg/injection, schedule: Q01DX009 (ip), vehicle: saline",0 of 6
OC1CCCC2CCC[N-]C12.OC1CCCC2CCC[N-]C12.[Mn+2] (stereo unspecified),survivor count,[7],4 of 10
NCC(O)c1ccc(O)c(O)c1 (stereo unspecified),survivor count,"dose: 1.56 mg/kg/injection, schedule: Q01DX009 (ip), vehicle: saline",10 of 10
same,survivor count,"dose: 3.12 mg/kg/injection, schedule: Q01DX009 (ip), vehicle: saline",10 of 10
same,survivor count,"dose: 6.25 mg/kg/injection, schedule: Q01DX009 (ip), vehicle: saline",5 of 10
same,survivor count,"dose: 12.5 mg/kg/injection, schedule: Q01DX009 (ip), vehicle: saline",10 of 10
same,survivor count,"dose: 25.0 mg/kg/injection, schedule: Q01DX009 (ip), vehicle: saline","1 of 10, 5 of 10, 6 of 10"
CN(C)CCCN1c2ccccc2Sc2cnccc21,survivor count,"dose: 150.0 mg/kg/injection, schedule: Q01DX009 (ip), vehicle: saline",5 of 10
same,survivor count,"dose: 225.0 mg/kg/injection, schedule: Q01DX009 (ip), vehicle: saline",0 of 10
same,survivor count,"dose: 335.0 mg/kg/injection, schedule: Q01DX009 (ip), vehicle: saline",0 of 10
CCC(N)CC,T/C,[9],132 % of control
O=C1NC(=O)/C(=C/c2ccccc2)N1,survivor count,[7],6 of 6
O=C(Nc1ccccc1C(F)(F)F)c1ccc(Cl)cc1,survivor count,[8],10 of 10
same,survivor count,[5],10 of 10
same,survivor count,[7],10 of 10
CCCCOP(=O)(CCl)OCCCC,survivor count,[5],8 of 10
CCCCCCCC(=O)Nc1ccc(C)cc1,survivor count,[6],10 of 10
CNc1nc(N)nc(Nc2ccc(I)cc2)c1N=O,T/C,[8],126 % of control [9 of 10 alive]
same,survivor count,[5],10 of 10
